Measured values: paper PMC6249555
These are yes or no findings as the source states them, for the method shown. In cells and extracts the contact can be indirect. Some binding calls cover weakened binding; strength is not graded here. For some assays here: Sequences can lack the tags named with a protein.

Sequences of proteins named here, by UniProt entry; tags and fusion partners are left off. Residues count along the entry.
UniProt P55064: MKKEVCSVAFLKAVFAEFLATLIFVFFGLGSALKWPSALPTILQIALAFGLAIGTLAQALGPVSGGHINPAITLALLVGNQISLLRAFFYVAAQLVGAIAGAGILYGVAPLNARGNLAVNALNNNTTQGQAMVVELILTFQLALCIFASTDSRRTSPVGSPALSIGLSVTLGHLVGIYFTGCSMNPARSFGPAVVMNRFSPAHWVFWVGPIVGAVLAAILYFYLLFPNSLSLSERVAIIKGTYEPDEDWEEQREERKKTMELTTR
UniProt Q9WTY4: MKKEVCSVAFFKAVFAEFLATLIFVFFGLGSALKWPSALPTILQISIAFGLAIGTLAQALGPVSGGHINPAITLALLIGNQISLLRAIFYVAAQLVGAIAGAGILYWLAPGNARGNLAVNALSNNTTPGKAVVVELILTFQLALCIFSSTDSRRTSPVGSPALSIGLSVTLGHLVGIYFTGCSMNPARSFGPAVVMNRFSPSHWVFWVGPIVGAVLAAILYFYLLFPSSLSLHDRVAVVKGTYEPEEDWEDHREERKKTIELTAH
UniProt O43570, residues 25-354: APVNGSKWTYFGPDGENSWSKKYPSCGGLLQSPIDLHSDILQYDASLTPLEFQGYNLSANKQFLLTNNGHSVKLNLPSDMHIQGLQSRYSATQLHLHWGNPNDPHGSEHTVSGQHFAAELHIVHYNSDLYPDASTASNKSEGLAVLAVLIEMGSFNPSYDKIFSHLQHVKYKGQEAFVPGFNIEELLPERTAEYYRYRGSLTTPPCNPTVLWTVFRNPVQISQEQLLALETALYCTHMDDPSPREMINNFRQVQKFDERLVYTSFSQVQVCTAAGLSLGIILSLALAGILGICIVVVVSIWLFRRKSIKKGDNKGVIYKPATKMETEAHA

Columns and labels:
[1] = target: GFP-tagged human AQP5 (human) (UniProt P55064); assay: co-IP; immunoprecipitation assay; no figure cited; cells and constructs not named
[2] = target: AQP5, native, in isolated mouse submandibular gland (SMG) cells (mouse (endogenous in SMG cells)) (UniProt Q9WTY4); assay: co-IP; isolated mouse submandibular gland (SMG) cells, native proteins; which protein was precipitated is not given
[3] = target: GFP-tagged human AQP5 (human) (UniProt P55064); assay: co-IP; lysate of transfected HEK293T cells (20 mM Tris, 150 mM NaCl, 2 mM EDTA, 1% Triton X-100); 1 ug/mL of the indicated antibodies at 4 °C for 16 h, protein G plus agarose beads for 4 h, washed thrice with lysis buffer

Molecule	binding [2]	binding [3]	other results
mKate-human CA12 wild type (from UniProt O43570 25-354) (enzyme)			binding [1]: no binding
AE2, native, in isolated mouse submandibular gland (SMG) cells (protein, UniProt P13808 1-1237) MSSAPRRPASGADSLHTPEPESLSPGTPGFPEQEEDELRTLGVERFEEILQEAGSRGGEEPGRSYGEEDFEYHRQSSHHIHHPLSTHLPPDARRRKTPQGPGRKPRRRPGASPTGETPTIEEGEEDEEEASEAEGFRAPPQQPSPATTPSAVQFFLQEDEGAERKPERTSPSPPTQTPHQEAAPRASKGAQTGTLVEEMVAVASATAGGDDGGAAGRPLTKAQPGHRSYNLQERRRIGSMTGVEQALLPRVPTDESEAQTLATADLDLMKSHRFEDVPGVRRHLVRKNAKGSTQAAREGREPGPTPRARPRAPHKPHEVFVELNELLLDKNQEPQWRETARWIKFEEDVEEETERWGKPHVASLSFRSLLELRRTLAHGAVLLDLDQQTLPGVAHQVVEQMVISDQIKAEDRANVLRALLLKHSHPSDEKEFSFPRNISAGSLGSLLGHHHAQGTESDPHVTEPLIGGVPETRLEVDRERELPPPAPPAGITRSKSKHELKLLEKIPENAEATVVLVGCVEFLSRPTMAFVRLREAVELDAVLEVPVPVRFLFLLLGPSSANMDYHEIGRSISTLMSDKQFHEAAYLADERDDLLTAINAFLDCSVVLPPSEVQGEELLRSVAHFQRQMLKKREEQGRLLPPGAGLEPKSAQDKALLQMVEVAGAAEDDPLRRTGRPFGGLIRDVRRRYPHYLSDFRDALDPQCLAAVIFIYFAALSPAITFGGLLGEKTKDLIGVSELIMSTALQGVVFCLLGAQPLLVIGFSGPLLVFEEAFFSFCSSNELEYLVGRVWIGFWLVFLALLMVALEGSFLVRFVSRFTQEIFAFLISLIFIYETFYKLIKIFQEHPLHGCSGSNDSEAGSSSSSNMTWATTILVPDNSSASGQSGQEKPRGQPNTALLSLVLMAGTFFIAFFLRKFKNSRFFPGRIRRVIGDFGVPIAILIMVLVDYSIEDTYTQKLSVPSGFSVTAPDKRGWVINPLGEKTPFPVWMMVASLLPAVLVFILIFMETQITTLIISKKERMLQKGSGFHLDLLLIVAMGGICALFGLPWLAAATVRSVTHANALTVMSKAVAPGDKPKIQEVKEQRVTGLLVALLVGLSMVIGDLLRQIPLAVLFGIFLYMGVTSLNGIQFYERLHLLLMPPKHHPDVTYVKKVRTMRMHLFTALQLLCLALLWAVMSTAASLAFPFILILTVPLRMVVLTRIFTEREMKCLDANEAEPVFDECEGVDEYNEMPMPV	binds		
HA-rabbit AE2 (protein, UniProt P48746 1-1237) MSSAPRRPASGADSFRTPEPESLGPGTPGFPEQEEDELHRTLGVERFEEILQEAGSRGGEEPGRSYGEEDFEYHRQSSHHIHHPLSTHLPPDARRRKTPQGPGRKPRRRPGASPTGATPTIEEGEEDEEEANEAEGARAPTEPSPASTPSSVQFFLQEDEGAERKAERTSPSPPTLLPHQEAAPWATEGAQTGVPVEEVAVVASGTAGGDNGGASGRPLTKAQPGHRSYNLQERRRIGSMTGAEQALLPRVPTDESEAQTLATADLDLMKSHRFEDVPGVRRHLVRKNAKGSAQSSREGREPGPTPRSRPRAPHKPHEVFVELNELLLDKNQEPQWRETARWIKFEEDVEEETERWGKPHVASLSFRSLLELRRTLAHGAVLLDLDQQTLPGVAHQVVEQMVISDQIKAEDRANVLRALLLKHSHPSDEKDFSFPRNISAGSLGSLLGHHHGQGAESDPHVTEPLIGGIPETRLDVERERDVPPSAPPAGITRSKSKHELKLLEKIPENAEATVVLVGCVEFLSRPTMAFVRLREAVELDAVLEVPVPVRFLFLLLGPSSANMDYHEIGRSISTLMSDKQFHEAAYLADEREDLLTAINAFLDCSVVLPPSEVQGEELLRSVAHFQRQMLKKREEQGRLLPPGLGLEPKSAQDKALLQMVEAAGAAEDDPLRRTGRPFGGLIRDVRRRYPHYLSDFRDALDPQCVAAVIFIYFAALSPAITFGGLLGEKTQDLIGVSELIMSTALQGVIFCLLGAQPLLVIGFSGPLLVFEEAFFTFCSSNQLEYLVGRVWIGFWLVLLALLMVALEGSFLVRFVSRFTQEIFAFLISLIFIYETFYKLIKIFQEHPLHGCSVSNSSETDSSENATWAGAGSTLGPANRSSAGQAGQGRPRGQPNTALLSLVLMAGTFFIAFFLRKFKNSRFFPGRIRRVIGDFGVPIAILIMVLVDYSIEDTYTQKLSVPSGFSVTAPDKRGWVINPLGEKSPFPVWMMVASLLPAILVFILIFMETQITTLIISKKERMLQKGSGFHLDLLLIVAMGGICALFGLPWLAAATVRSVTHANALTVMSKAVAPGDKPKIQEVKEQRVTGLLVALLVGLSIVIGDLLRQIPLAVLFGIFLYMGVTSLNGIQFYERLHLLLMPPKHHPDVTYVKKVRTLRMHLFTALQLLCLALLWAVMSTAASLAFPFILILTVPLRMVVLTRIFTEREMKCLDANEAEPVFDEREGVDEYNEMPMPV		binds	
NKCC1, native, in mouse submandibular gland (SMG) (protein, UniProt P55012 1-1205) MEPGPARPRLAPAARPGWGRAAGCRRRGGPARHGRASGQEDATTAGRQAGGGVRGEGTPAAGDGLGRPLGPTPSQSRFQVDPVSENAGRAAAAAAAAAAAAAAAGAAGKETPAAGKAGGESGVAKGSEEAKGRFRVNFVDPAASSSADDSLSDAAGVGGDGPNVSFQNGGDTVLSEGSSLHSGGGSGHHQQYYYDTHTNTYYLRTFGHNTMDAVPRIDHYRHTAAQLGEKLLRPSLAELHDELEKEPFEDGFANGEESTPTRDAVVAYTAESKGVVKFGWIKGVLVRCMLNIWGVMLFIRLSWIVGQAGIGLSVVVIAMATVVTTITGLSTSAIATNGFVRGGGAYYLISRSLGPEFGGAIGLIFAFANAVAVAMYVVGFAETVVELLKEHSILMIDEINDIRIIGAITVVILLGISVAGMEWEAKAQIVLLVILLLAIADFVIGTFISLESKKPKGFFGYKSEIFNENFGPDFREEETFFSVFAIFFPAATGILAGANISGDLADPQSAIPKGTLLAILITTVVYIGIAVSVGSCVVRDATGNVNDTITTELTNCTSAACKLNFDFSYCESNTCSYGLMNNFQVMSMVSGFAPLISAGIFSATLSSALASLVSAPKIFQALCKDNIYPAFQMFAKGYGKNNEPLRGYILTFLIALGFILIAELNVIAPIISNFFLASYALINFSVFHASLAKSPGWRPAFKYYNMWISLIGAILCCIVMFVINWWAALLTYVIVLGLYIYVTYKKPDVNWGSSTQALTYLSALQHSIRLSGVEDHVKNFRPQCLVMTGSPNSRPALLHLVHDFTKNVGLMICGHVHMGPRRQAMKEMSIDQARYQRWLIKNKMKAFYAPVHADDLREGAQYLMQAAGLGRMKPNTLVLGFKKDWLQADMRDVDMYINLFHDAFDIQFGVVVIRLKEGLDISHLQGQEELLSSQEKSPGTKDVVVNVDYSKKSDQDTCKSSGEKSITQKDEEEDGKTPTQPLLKKESKGPIVPLNVADQKLLEASTQFQKKQGKNTIDVWWLFDDGGLTLLIPYLLTTKKKWKDCKIRVFIGGKINRIDHDRRAMATLLSKFRIDFSDIMVLGDINTKPKKENIIAFDDMIEPYRLHEDDKEQDIADKMKEDEPWRITDNELELYKTKTYRQIRLNELLKEHSSTANIIVMSLPVARKGAVSSALYMAWLEALSKDLPPVLLVRGNHQSVLTFYS	binds		
human NKCC1 (pcDNA3.0-human NKCC1) (protein, UniProt P55011 1-1212) MEPRPTAPSSGAPGLAGVGETPSAAALAAARVELPGTAVPSVPEDAAPASRDGGGVRDEGPAAAGDGLGRPLGPTPSQSRFQVDLVSENAGRAAAAAAAAAAAAAAAGAGAGAKQTPADGEASGESEPAKGSEEAKGRFRVNFVDPAASSSAEDSLSDAAGVGVDGPNVSFQNGGDTVLSEGSSLHSGGGGGSGHHQHYYYDTHTNTYYLRTFGHNTMDAVPRIDHYRHTAAQLGEKLLRPSLAELHDELEKEPFEDGFANGEESTPTRDAVVTYTAESKGVVKFGWIKGVLVRCMLNIWGVMLFIRLSWIVGQAGIGLSVLVIMMATVVTTITGLSTSAIATNGFVRGGGAYYLISRSLGPEFGGAIGLIFAFANAVAVAMYVVGFAETVVELLKEHSILMIDEINDIRIIGAITVVILLGISVAGMEWEAKAQIVLLVILLLAIGDFVIGTFIPLESKKPKGFFGYKSEIFNENFGPDFREEETFFSVFAIFFPAATGILAGANISGDLADPQSAIPKGTLLAILITTLVYVGIAVSVGSCVVRDATGNVNDTIVTELTNCTSAACKLNFDFSSCESSPCSYGLMNNFQVMSMVSGFTPLISAGIFSATLSSALASLVSAPKIFQALCKDNIYPAFQMFAKGYGKNNEPLRGYILTFLIALGFILIAELNVIAPIISNFFLASYALINFSVFHASLAKSPGWRPAFKYYNMWISLLGAILCCIVMFVINWWAALLTYVIVLGLYIYVTYKKPDVNWGSSTQALTYLNALQHSIRLSGVEDHVKNFRPQCLVMTGAPNSRPALLHLVHDFTKNVGLMICGHVHMGPRRQAMKEMSIDQAKYQRWLIKNKMKAFYAPVHADDLREGAQYLMQAAGLGRMKPNTLVLGFKKDWLQADMRDVDMYINLFHDAFDIQYGVVVIRLKEGLDISHLQGQEELLSSQEKSPGTKDVVVSVEYSKKSDLDTSKPLSEKPITHKVEEEDGKTATQPLLKKESKGPIVPLNVADQKLLEASTQFQKKQGKNTIDVWWLFDDGGLTLLIPYLLTTKKKWKDCKIRVFIGGKINRIDHDRRAMATLLSKFRIDFSDIMVLGDINTKPKKENIIAFEEIIEPYRLHEDDKEQDIADKMKEDEPWRITDNELELYKTKTYRQIRLNELLKEHSSTANIIVMSLPVARKGAVSSALYMAWLEALSKDLPPILLVRGNHQSVLTFYS		binds	
